Experiments:
[1] = tested on: ethanol-induced gastric lesions; assay: Ethanol-induced gastric lesion model; assay type: in vivo, Male Wistar rats; details: indomethacin 5 mg/kg i.p., SC-560 5 mg/kg i.g. or rofecoxib 10 mg/kg i.g.; versus no inhibitor
Method: (§1) Male Wistar rats, weighing 180-220 grams were fasted for 24 hours before subjecting to experimentation were employed in all studies. The animals were divided into groups for the following types of induced gastric lesions: ethanol-; aspirin (acetylsalicylic acid; ASA)-; stress-; and ischemia-reperfusion (I/R)-induced gastric lesions. In the first group, gastric lesions were produced by intragastric (i.g.) application of ethanol (75%), in the second group by i.g. application of acidified ASA (125 mg/kg), in the third group by animal exposure to 3.5 hours of water immersion (and restraint stress (WRS), in the fourth group by ischemia (by clamping celiac artery for 30 minutes followed by release of the clamp (reperfusion for 3 hours) (I/R).
(§2) The following experiments were designed to assess the therapeutic effect of 1-MNA on induced gastric lesions. […]
(§3) To assess gastric blood flow (GBF) laser Doppler flowmeter (Laserflo, model BPM 403A, Blood Perfusion Monitor, Vasamedics, St. Paul, Minn., USA) was used. […] Blood flow was measured on anterior and posterior wall of stomach. The mean values of these measurements were calculated and expressed as percent change from value recorded in the intact mucosa.
To establish the number and area of gastric lesions, computerized planimetry (Morphomat, Carl Zeiss, Berlin, Germany) was used. Results are expressed as mm.

[2] = tested on: WRS-induced gastric lesions; assay: Water immersion and restraint stress (WRS)-induced gastric lesion model; assay type: in vivo, Male Wistar rats; details: indomethacin 5 mg/kg i.p., SC-560 5 mg/kg i.g. or rofecoxib 10 mg/kg i.g.; versus absence of inhibitor
Method: as §1, §2, §3
To establish the number and area of gastric lesions, computerized planimetry (Morphomat, Carl Zeiss, Berlin, Germany) was used. Results are expressed as mm. […]

COc1ccc(-n2nc(C(F)(F)F)cc2-c2ccc(Cl)cc2)cc1 [SC-560]
number of lesions after COX inhibitor pretreatment in the absence of 1-MNA [1]: increased the number of lesions | lesion numbers after COX inhibitor pretreatment before 1-MNA and WRS [2]: increase of lesion numbers

Source: US20090118225A1, “1-Methyl Nicotinamide and Derivatives for Treatment of Gastric Injury” (Cortria Corporation, priority 2007, published 2009)
